PubChem BioAssay AID1259308, NCATS, 2017
Assay: 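Candidate targets for better recombinant protein yield in mammalian cells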 (primary screen). Cell system: human HEK293 embryonic kidney cells stably expressing firefly luciferase (HEK-CMV-Luc2-Hygro). Reagents: single siRNA against human genes, 0.8 pmol siRNA per well. Timing: 72 h. Measurement: 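Reporter luminescence and viable-cell signal on separate replicate plates, given as percent of non-targeting control and median/MAD z-scores, plus per-cell luciferase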. Direction: total luciferase, z-score and total luciferase, % of control: higher = more reporter protein produced; luciferase per cell, z-score: higher = more reporter output per viable cell; viable cells, % of control: higher = more viable cells. Call rule: 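An siRNA counts as active if its total luciferase robust z-score exceeds 3; genes with two or more such siRNAs out of three were retested with fresh siRNAs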. Calls: active = raised luciferase; inactive = no rise.
The deposit covers about 59,000 reagents; shown is a random part of them. About 1,510 of them (2.6%) count as active. 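Calls use total luciferase alone and ignore viability, so some active siRNAs may act by altering cell number.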 A number with no mark means an inactive call. Reagents against one gene are numbered here.

| target | reagent | total luciferase, z-score | total luciferase, % of control | luciferase per cell, z-score | viable cells, % of control |
| --- | --- | --- | --- | --- | --- |
| ZNF23 (zinc finger protein 23) | 1 | -0.873 | 64.5 | 0.888 | 57.1 |
| ZNF23 (zinc finger protein 23) | 2 | -2.24 | 37.4 | -2.93 | 90.4 |
| ZNF23 (zinc finger protein 23) | 3 | -0.573 | 70.5 | -0.425 | 88.1 |
| RARA (retinoic acid receptor alpha) | 1 | 2.07 | 123 | 1.11 | 103 |
| RARA (retinoic acid receptor alpha) | 2 | -0.865 | 64.7 | -1.23 | 100 |
| RARA (retinoic acid receptor alpha) | 3 | 0.192 | 85.7 | 0.164 | 91.7 |
| RPL10AP3 (ribosomal protein L10a pseudogene 3) | 1 | -0.304 | 75.8 | -0.652 | 101 |
| RPL10AP3 (ribosomal protein L10a pseudogene 3) | 2 | -1.26 | 56.8 | -0.898 | 80.4 |
| RPL10AP3 (ribosomal protein L10a pseudogene 3) | 3 | -0.692 | 68.1 | -1.2 | 104 |
| CHD3 (chromodomain helicase DNA binding protein 3) | 1 | 0.0962 | 83.8 | 0.152 | 90 |
| CHD3 (chromodomain helicase DNA binding protein 3) | 2 | 1.86 | 119 | 2.32 | 72.1 |
| CHD3 (chromodomain helicase DNA binding protein 3) | 3 | -0.579 | 70.4 | -0.372 | 86.7 |
| EEF1DP1 | 1 | 0.237 | 86.6 | -0.936 | 124 |
| EEF1DP1 | 2 | 1.19 | 106 | 0.404 | 106 |
| EEF1DP1 | 3 | 0.376 | 89.4 | 0.0147 | 99.5 |
| PLBD2 (phospholipase B domain containing 2) | 1 | 0.279 | 87.4 | -0.652 | 116 |
| PLBD2 (phospholipase B domain containing 2) | 2 | -1.41 | 53.9 | -1.26 | 83.9 |
| PLBD2 (phospholipase B domain containing 2) | 3 | -0.186 | 78.2 | -0.405 | 97.2 |
| FBLN2 (fibulin 2) | 1 | 0.981 | 101 | 0.884 | 89.8 |
| FBLN2 (fibulin 2) | 2 | -3.44 | 13.4 | -5.72 | 67.5 |
| FBLN2 (fibulin 2) | 3 | -0.969 | 62.6 | -0.489 | 79.6 |

Records above whose target name begins with P or p:
| target | reagent | total luciferase, z-score | total luciferase, % of control | luciferase per cell, z-score | viable cells, % of control |
| --- | --- | --- | --- | --- | --- |
| PLBD2 (phospholipase B domain containing 2) | 1 | 0.279 | 87.4 | -0.652 | 116 |
| PLBD2 (phospholipase B domain containing 2) | 2 | -1.41 | 53.9 | -1.26 | 83.9 |
| PLBD2 (phospholipase B domain containing 2) | 3 | -0.186 | 78.2 | -0.405 | 97.2 |

The list goes on.
| target | reagent | total luciferase, z-score | total luciferase, % of control | luciferase per cell, z-score | viable cells, % of control |
| --- | --- | --- | --- | --- | --- |
| RMND1 (required for meiotic nuclear division 1 homolog) | 1 | 0.793 | 97.7 | 0.207 | 103 |
| RMND1 (required for meiotic nuclear division 1 homolog) | 2 | 2.42 | 130 | 1.77 | 91.2 |
| RMND1 (required for meiotic nuclear division 1 homolog) | 3 | -1.8 | 46 | -2.56 | 101 |
| KRT15 (keratin 15) | 1 | -0.648 | 69 | -0.945 | 98.9 |
| KRT15 (keratin 15) | 2 | 2.72 | 136 | 1.7 | 97.1 |
| KRT15 (keratin 15) | 3 | 0.0328 | 82.5 | -0.647 | 109 |
| PRCC (proline rich mitotic checkpoint control factor) | 1 | 0.123 | 84.3 | -0.293 | 102 |
| PRCC (proline rich mitotic checkpoint control factor) | 2 | -0.83 | 65.4 | -0.3 | 79.1 |
| PRCC (proline rich mitotic checkpoint control factor) | 3 | 1.07 | 103 | 0.927 | 90.3 |
| DESI1 (desumoylating isopeptidase 1) | 1 | -0.242 | 77.1 | -0.715 | 104 |
| DESI1 (desumoylating isopeptidase 1) | 2 | 0.427 | 90.4 | 0.297 | 93.4 |
| DESI1 (desumoylating isopeptidase 1) | 3 | 0.616 | 94.1 | 0.761 | 86.1 |
| CLN6 (CLN6 transmembrane ER protein) | 1 | -0.215 | 77.6 | -0.037 | 87.6 |
| CLN6 (CLN6 transmembrane ER protein) | 2 | 0.982 | 101 | 0.349 | 103 |
| CLN6 (CLN6 transmembrane ER protein) | 3 | 1.1 | 104 | 1.27 | 82.8 |
| OR4C13 (olfactory receptor family 4 subfamily C member 13) | 1 | 1.35 | 109 | 1.55 | 80.8 |
| OR4C13 (olfactory receptor family 4 subfamily C member 13) | 2 | 2.58 | 133 | 1.87 | 91 |
| OR4C13 (olfactory receptor family 4 subfamily C member 13) | 3 | 1.41 | 110 | 0.788 | 99.8 |
| PRKAA2 (protein kinase AMP-activated catalytic subunit alpha 2) | 1 | -0.858 | 64.8 | -1.01 | 94.5 |
| PRKAA2 (protein kinase AMP-activated catalytic subunit alpha 2) | 2 | 0.28 | 87.5 | -0.426 | 109 |
| PRKAA2 (protein kinase AMP-activated catalytic subunit alpha 2) | 3 | 0.533 | 92.5 | 1.61 | 67.6 |
| KHNYN (KH and NYN domain containing) | 1 | -2.06 | 40.9 | -1.88 | 75 |
| KHNYN (KH and NYN domain containing) | 2 | 0.235 | 86.6 | 0.0804 | 94.7 |
| KHNYN (KH and NYN domain containing) | 3 | -0.687 | 68.2 | -0.337 | 83.3 |
| GAS2L3 (growth arrest specific 2 like 3) | 1 | 0.556 | 93 | -0.262 | 111 |
| GAS2L3 (growth arrest specific 2 like 3) | 2 | -0.338 | 75.2 | -1.06 | 111 |
| GAS2L3 (growth arrest specific 2 like 3) | 3 | -1.29 | 56.2 | -1.24 | 87.2 |
| HIGD1B (HIG1 hypoxia inducible domain family member 1B) | 1 | 0.488 | 91.6 | 0.143 | 98.6 |
| HIGD1B (HIG1 hypoxia inducible domain family member 1B) | 2 | -0.337 | 75.2 | 0.623 | 71.3 |
| HIGD1B (HIG1 hypoxia inducible domain family member 1B) | 3 | -0.488 | 72.2 | -0.687 | 96.6 |
| GTF2E2 (general transcription factor IIE subunit 2) | 1 | -1.54 | 51.2 | -2.51 | 111 |
| GTF2E2 (general transcription factor IIE subunit 2) | 2 | -1.18 | 58.4 | -0.26 | 69.9 |
| GTF2E2 (general transcription factor IIE subunit 2) | 3 | -1.17 | 58.6 | -1.46 | 96.3 |
| FHDC1 (FH2 domain containing 1) | 1 | 2.21 | 126 | 1.7 | 90 |
| FHDC1 (FH2 domain containing 1) | 2 | 1.35 | 109 | 2.63 | 60.8 |
| FHDC1 (FH2 domain containing 1) | 3 | -0.601 | 69.9 | 0.365 | 71 |
